Drawing on paper PMC4994047, this text covers binding for one molecule.

For the test, the target named is MamM CTD M250P (Magnetospirillum gryphiswaldense MSR-1) (UniProt V6F235). Description: SEC-MALS; MamM CTD M250P at 4 mg mL^-1, 200 uL injected on Superdex75 10/300 GL in Buffer F (10 mM Tris-HCl pH 8, 50 mM NaCl, 5 mM beta-mercaptoethanol); both purified. A general note: In gel filtration, larger molecules generally elute earlier.

These are yes or no findings as the source states them, for the method shown.

B1: MamM CTD M250P (domain or fragment, UniProt V6F235 215-318)
chain: EAVQNRIVEAAERVPGVRGVIHLRARYVGQDIWADPIIGVDPENTVEQAHEICEAVQAAVCGKIRRIESLHVSAEAREIGDTTKPSFSDQPLSFDEVMLSKVDN
On to B1, for which the binding result was “no binding (tested: 4 mg mL^-1)”.
